From publication PMC9556925 come the findings set out here.

Sequences of proteins named here, by UniProt entry; tags and fusion partners are left off.
UniProt P35568: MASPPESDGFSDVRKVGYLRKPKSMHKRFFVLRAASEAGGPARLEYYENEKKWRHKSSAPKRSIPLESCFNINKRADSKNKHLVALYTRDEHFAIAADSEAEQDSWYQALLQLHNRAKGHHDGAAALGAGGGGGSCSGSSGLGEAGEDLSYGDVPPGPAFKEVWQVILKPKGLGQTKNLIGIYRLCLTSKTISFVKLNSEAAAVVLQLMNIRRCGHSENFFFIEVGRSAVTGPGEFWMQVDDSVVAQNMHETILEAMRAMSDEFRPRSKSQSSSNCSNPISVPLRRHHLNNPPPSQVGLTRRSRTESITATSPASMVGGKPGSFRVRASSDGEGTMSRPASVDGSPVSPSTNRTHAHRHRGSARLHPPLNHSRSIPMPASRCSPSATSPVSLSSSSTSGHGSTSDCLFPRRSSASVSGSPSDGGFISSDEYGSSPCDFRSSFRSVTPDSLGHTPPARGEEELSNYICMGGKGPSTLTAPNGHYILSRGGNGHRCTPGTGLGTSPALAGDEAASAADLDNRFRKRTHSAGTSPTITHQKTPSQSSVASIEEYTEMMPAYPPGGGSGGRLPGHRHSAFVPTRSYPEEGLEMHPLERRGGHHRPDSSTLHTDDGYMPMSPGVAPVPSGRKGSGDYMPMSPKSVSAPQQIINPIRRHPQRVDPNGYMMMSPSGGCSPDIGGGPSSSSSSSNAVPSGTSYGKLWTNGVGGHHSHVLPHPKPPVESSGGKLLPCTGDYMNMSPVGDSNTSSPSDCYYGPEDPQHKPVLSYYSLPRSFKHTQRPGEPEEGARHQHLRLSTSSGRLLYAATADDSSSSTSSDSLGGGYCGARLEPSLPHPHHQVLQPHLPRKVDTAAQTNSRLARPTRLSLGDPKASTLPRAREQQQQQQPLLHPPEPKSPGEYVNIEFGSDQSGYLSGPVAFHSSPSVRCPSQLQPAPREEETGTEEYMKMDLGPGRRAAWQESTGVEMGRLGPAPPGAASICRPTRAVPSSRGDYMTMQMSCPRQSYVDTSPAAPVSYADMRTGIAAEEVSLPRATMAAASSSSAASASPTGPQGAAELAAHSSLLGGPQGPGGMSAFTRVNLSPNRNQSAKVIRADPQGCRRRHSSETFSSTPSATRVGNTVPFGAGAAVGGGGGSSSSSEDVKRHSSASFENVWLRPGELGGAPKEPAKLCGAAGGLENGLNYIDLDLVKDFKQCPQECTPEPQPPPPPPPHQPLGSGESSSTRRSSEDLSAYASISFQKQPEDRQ
UniProt Q12778: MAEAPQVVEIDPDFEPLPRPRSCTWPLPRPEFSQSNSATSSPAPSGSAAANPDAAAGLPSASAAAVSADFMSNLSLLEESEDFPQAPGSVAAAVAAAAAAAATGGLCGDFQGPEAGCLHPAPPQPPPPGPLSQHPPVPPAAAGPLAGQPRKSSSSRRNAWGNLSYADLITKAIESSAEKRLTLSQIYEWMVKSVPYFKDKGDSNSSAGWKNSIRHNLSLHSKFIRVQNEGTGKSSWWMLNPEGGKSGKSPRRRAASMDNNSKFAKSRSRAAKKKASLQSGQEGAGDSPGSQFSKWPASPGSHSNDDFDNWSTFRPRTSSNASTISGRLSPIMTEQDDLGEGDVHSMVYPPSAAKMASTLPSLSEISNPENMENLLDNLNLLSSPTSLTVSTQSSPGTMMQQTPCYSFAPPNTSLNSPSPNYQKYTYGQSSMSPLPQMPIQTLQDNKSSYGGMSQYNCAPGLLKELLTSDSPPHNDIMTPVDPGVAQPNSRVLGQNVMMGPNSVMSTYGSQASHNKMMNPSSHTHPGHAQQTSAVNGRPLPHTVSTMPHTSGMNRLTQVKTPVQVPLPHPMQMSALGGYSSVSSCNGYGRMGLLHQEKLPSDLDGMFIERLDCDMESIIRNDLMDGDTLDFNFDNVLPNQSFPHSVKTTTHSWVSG

Results are given in words; binding and its absence hold for the method and conditions named. In cells and extracts the contact can be indirect. Some binding calls cover weakened binding; strength is not graded here. For part of these data: Where a sequence is shown, tags or fusion partners need not be part of it.

For one test, the target named is T1, DCAF7-Flag (human) (UniProt P61962).
T1 sequence: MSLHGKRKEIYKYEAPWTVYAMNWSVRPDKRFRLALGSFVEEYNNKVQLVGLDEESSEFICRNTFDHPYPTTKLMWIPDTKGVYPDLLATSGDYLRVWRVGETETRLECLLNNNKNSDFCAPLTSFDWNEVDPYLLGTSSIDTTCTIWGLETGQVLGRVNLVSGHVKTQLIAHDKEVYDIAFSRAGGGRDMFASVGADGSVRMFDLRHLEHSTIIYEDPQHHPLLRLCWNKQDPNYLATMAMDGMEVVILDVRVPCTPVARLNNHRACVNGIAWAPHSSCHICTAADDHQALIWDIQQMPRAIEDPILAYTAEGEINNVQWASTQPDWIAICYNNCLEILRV
Kind of test: co-IP; HepG2 cells transfected 24 h; DCAF7-Flag precipitated with EZview Red ANTI-Flag M2 from lysate (50 mM Tris-HCl pH 7.4, 150 mM NaCl, 1 mM EDTA, 1% Triton X-100), 2 h at 4°C; immunoblot; for endogenous IRS1 in the presence or absence of insulin. On the technique in general: A western blot detects proteins with antibodies after separation by electrophoresis.

For test [1], the target named is T2, DCAF7 (co-immunoprecipitation of Figure S4A) (human) (UniProt P61962).
T2 sequence: T1 sequence
Kind of test: co-IP; coimmunoprecipitation of Figure S4A; cells, constructs and bait not given.

For the substance “DYRK1A-GFP (from UniProt Q63470 1-763) (enzyme)”, in the test with DCAF7-Flag (human), the binding entry is reported as “binds”.
“endogenous IRS1 (from UniProt P35568 1-1242)”: in the test with DCAF7-Flag (human), the binding result is recorded as “binds”.
With “forkhead box O1 (FOXO1) (from UniProt Q12778 1-655)”, the binding result in test [1] is “no binding”.
